PubChem BioAssay AID504786 | Drosophila RNAi Screening Center – 2011
In all, the deposit lists about 21,000 reagents; shown is an unselected part of those with a known target gene and a result. 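Primary screen; positive scores mean lost reporter signal, so the sign may be inverted from the usual convention.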 The numbers tell different reagents against one gene apart. Names joined by + are all predicted targets of the reagent.

- Purpose: 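Positive regulators of HIF-driven reporter output in Drosophila cells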 (primary screen)
- Cell system: Drosophila S2 cells with a stable HIF luciferase reporter
- Knock-down reagent: long dsRNA against Drosophila genes, about 0.2 µg dsRNA per well of a 384-well plate
- Time to read-out: three days of knock-down, then 20 h of DFO before reading
- Conditions: desferrioxamine (DFO) at 100 µM, an iron chelator that mimics hypoxia, for 20 h
- Read-out: 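HIF reporter luminescence in cells given 100 µM DFO for 20 h, using the mouse ldh-a hypoxia-response element, scored as per-plate z-scores; higher means greater loss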
- Reading the numbers: z-score: higher = stronger loss of HIF reporter signal

| target gene | reagent | z-score, replicate 1 | z-score, replicate 2 | z-score, replicate 3 | z-score, replicate 4 |
| --- | --- | --- | --- | --- | --- |
| CG13739 | 1 | 0.3 | 0.5 | – | – |
| mbc | 1 | 0.5 | 0.1 | – | – |
| Or2a | 1 | -0.1 | 0.1 | – | – |
| CG11374 | 1 | -0.2 | -0.1 | – | – |
| CG12688 (retired record) | 1 | -0.3 | -0.7 | -0.5 | -0.4 |
| CG12688 (retired record) | 2 | -0.3 | -0.2 | -0.6 | -0.3 |
| RpS4 | 1 | 7.7 | 5.2 | – | – |
| Flad1 | 1 | -0.3 | -0.3 | – | – |
| U2A | 1 | 0.3 | 0.7 | – | – |
| CG4020 | 1 | -0.2 | 0.1 | – | – |
| CG10137 | 1 | -0.3 | 0.4 | – | – |
| CG10137 | 2 | -0.4 | 0 | – | – |
| CG14160 | 1 | -0.2 | -0.3 | – | – |
| Smyd5 | 1 | 0.5 | 0.6 | – | – |
| CG31760 | 1 | -0.2 | -0.1 | – | – |
| CG1620 | 1 | -0.2 | -0.2 | – | – |
| Tango1 | 1 | -0.4 | -0.5 | – | – |
| COX5A | 1 | 1.4 | 1.5 | – | – |
| IP3K2 | 1 | -0.1 | -0.4 | 0 | 0.2 |
| IP3K2 | 2 | -0.2 | -0.2 | – | – |
| CG13488 | 1 | -0.2 | -0.3 | – | – |
| FMRFaR | 1 | -0.4 | -0.6 | – | – |
| Evi5 | 1 | -0.3 | -0.1 | – | – |
| sowi | 1 | -0.2 | -0.1 | – | – |
| CG32354 | 1 | -0.4 | -0.4 | – | – |
| CG32354 | 2 | -0.3 | -0.3 | 0.2 | -0.3 |
| Psc | 1 | -0.4 | -0.3 | – | – |
| CG15047 | 1 | 0.2 | -0.6 | 0.9 | -0.3 |
| par-6 | 1 | -0.4 | -0.1 | – | – |
| hfw | 1 | -0.3 | -0.5 | – | – |
| CG7997 | 1 | -0.1 | 0 | – | – |
| Vps50 | 1 | -0.3 | 0.1 | – | – |
| CG31029 | 1 | 0.1 | 0.8 | – | – |
| Sb | 1 | -0.4 | -0.9 | – | – |
| glob1 | 1 | -0.2 | 0.3 | – | – |
| CG13311 | 1 | 0 | 1.3 | – | – |
| yip7 | 1 | -0.2 | 0 | – | – |
| D12 | 1 | -0.3 | -0.2 | – | – |
| Glys | 1 | -0.4 | -0.3 | – | – |
| Sec3 | 1 | -0.4 | -0.7 | – | – |
| nau | 1 | -0.2 | -0.4 | – | – |

9 consecutive records already listed:
| target gene | reagent | z-score, replicate 1 | z-score, replicate 2 | z-score, replicate 3 | z-score, replicate 4 |
| --- | --- | --- | --- | --- | --- |
| FMRFaR | 1 | -0.4 | -0.6 | – | – |
| Evi5 | 1 | -0.3 | -0.1 | – | – |
| sowi | 1 | -0.2 | -0.1 | – | – |
| CG32354 | 1 | -0.4 | -0.4 | – | – |
| CG32354 | 2 | -0.3 | -0.3 | 0.2 | -0.3 |
| Psc | 1 | -0.4 | -0.3 | – | – |
| CG15047 | 1 | 0.2 | -0.6 | 0.9 | -0.3 |
| par-6 | 1 | -0.4 | -0.1 | – | – |
| hfw | 1 | -0.3 | -0.5 | – | – |

Continued.
| target gene | reagent | z-score, replicate 1 | z-score, replicate 2 | z-score, replicate 3 | z-score, replicate 4 |
| --- | --- | --- | --- | --- | --- |
| Tip60 | 1 | 0.1 | 1.4 | – | – |
| boil | 1 | -0.3 | -0.8 | – | – |
| Cyp4d2 | 1 | -0.3 | 0.2 | – | – |
| ari-2 | 1 | -0.2 | -0.3 | – | – |
| TfIIFbeta | 1 | -0.3 | -0.5 | – | – |
| Sac1 | 1 | -0.1 | -0.2 | – | – |
| CG30105 | 1 | -0.8 | -0.2 | – | – |
| CG10962 | 1 | -0.3 | -0.4 | – | – |
| CG4645 | 1 | -0.3 | -0.6 | – | – |
| CG7299 | 1 | 0 | 0.2 | – | – |
| GstE6 | 1 | -0.3 | -0.5 | – | – |
| CG6144 | 1 | -0.7 | 0.2 | – | – |
| Gem4b + Gem4c + Glos | 1 | -0.3 | -0.3 | – | – |
| Rrp1 | 1 | -0.2 | -0.2 | – | – |
| Lsd-2 | 1 | -0.3 | -0.8 | – | – |
| Cad89D | 1 | -0.3 | -0.1 | – | – |
| CG31960 | 1 | -0.2 | -0.2 | – | – |
| CG13724 | 1 | 0 | 0.4 | – | – |
| dco | 1 | -0.4 | -0.2 | – | – |
| Osi12 | 1 | -0.4 | 0.4 | – | – |
| NimC1 | 1 | -0.4 | -0.3 | – | – |
| Coa7 | 1 | 0.9 | 0.3 | – | – |
| ix | 1 | 1.5 | 0.5 | – | – |
| Cyp4ad1 | 1 | -0.4 | -0.4 | – | – |
| nebu | 1 | -0.1 | -0.2 | – | – |
| nebu | 2 | -0.3 | -0.1 | – | – |
| wun2 | 1 | -0.3 | -0.2 | – | – |
| Ance-2 | 1 | -0.3 | -0.3 | – | – |
| CG11158 | 1 | -0.1 | 0.1 | – | – |
| Zasp52 | 1 | 1 | 0.3 | – | – |
| Zasp52 | 2 | -0.1 | -0.1 | – | – |
| Pif2 | 1 | -0.3 | -0.4 | – | – |
| CG14483 | 1 | -0.1 | 0 | – | – |
| pkm | 1 | -0.3 | -0.8 | – | – |
| CG14416 | 1 | -0.2 | 0.3 | – | – |
| CG9864 | 1 | -0.3 | 0 | – | – |
| mRpS35 | 1 | 0.7 | 0.7 | – | – |
| Esyt2 | 1 | -0.3 | 0 | – | – |
| Dap160 | 1 | -0.3 | -0.6 | – | – |
| CG4282 | 1 | -0.3 | -0.4 | – | – |
| MESK2 | 1 | -0.3 | -0.7 | – | – |
| intr | 1 | -0.3 | -0.2 | – | – |
